# According to PubChem BioAssay AID1259415 (National Center for Advancing Translational Sciences (NCATS), 2018):
# Several values for one entry are separate records, joined by “and”; a condition that tells them apart may be missing. Equal values may be shown once. About 18,000 (4.4%) of roughly 410,000 compounds were called active. The inconclusive results got no clear call from the source; some entries with a clear call stand among them for comparison. No stated cut-off is given here; in the data, active means activity change below about -60%; inconclusive means no clear call, values can overlap the other calls; inactive means above about -39%. Some compounds were tested as several samples or in several runs, with calls that do not always agree.
# Assay: qHTS Assay for inhibitors of the human cytomegalovirus (HCMV)
# Settings: HFF cells, HCMV-luciferase reporter, 72 h; at 57.5 µM; stronger effect = lower value
# Procedure, shortened: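 Steps: HFFs plated, 16 h 37C; compounds added; HCMV-luciferase added to MOI 1 PFU/cell; 72 h 37C; OneGlo reagent, 5 min room temperature; luminescence read, normalized to controls.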
# On the % scale 0 is the no-effect control and ±100 the full control effect.
row,Compound,"activity change, negative = inhibition"
1,C=C1C[C@@H]2C[C@@H]2CN(S(=O)(=O)c2ccc(C)cc2)[C@@H]1c1ccco1,inactive: -20.8%
2,Cc1ccccc1NCc1nc2ccccc2n1C,inactive: 95.7%
3,O=c1c(Br)c(-c2ccccc2Br)[nH]c2ccccc12,inconclusive: -40.9%
4,Cc1cc(OCC(=O)Nc2ccncc2)ccc1[N+](=O)[O-],inconclusive: -57%
5,COC(=O)C1=C(c2ccc(OC)c(OC)c2)C[C@@H]2CC[C@H]1N2C(=O)N1CCCCC1,inconclusive: -49.4%
6,CC1CCN(S(=O)(=O)c2cccc(C(=O)Nc3nccs3)c2)CC1,inconclusive: -58.3%
7,COc1ccccc1CNC(=O)c1cc2sccc2n1Cc1ccc(Cl)cc1,inactive: -15.8%
8,CC1CC(C)CN(S(=O)(=O)c2ccc(C(=O)N(C)Cc3ccccc3)cc2)C1 (configuration not stated),active: -65.3%
9,O=C(CSc1ncnc2ccccc12)Nc1ccc2c(c1)OCO2,inconclusive: -45.3%
10,COc1ccc(C(=O)NNC(=O)CN2CCN(c3nc(-c4ccccc4)cs3)CC2)cc1,inconclusive: -41.9%
11,CCC(C)NC(=O)CSc1nc2n[nH]c(C)c2c(=N)n1-c1cc(Cl)ccc1C (configuration not stated),inactive: -26.6%
12,Cc1ccc(NC(=O)CCC(=O)NNC(=O)c2cccs2)c(C)c1,inactive: 5.7%
13,O=C(C1CCCN(S(=O)(=O)c2cccc3nsnc23)C1)N1CCN(c2ccccc2F)CC1 (configuration not stated),inconclusive: -45.8%
14,O=C(Nc1cccc(Cl)c1)Nc1cc(S(=O)(=O)N2CCOCC2)ccc1N1CCCC1,active: -79.5%
15,CCOC(=O)c1[nH]c2ccc(OC)cc2c1NC(=O)NC(C)C,inactive: 58.6%
16,CCN1CCN(CCNC(=O)c2ccc3c(c2)N(Cc2cccc(Cl)c2)C(=O)c2ccccc2S3=O)CC1 (configuration not stated),active: -72.8%
17,CCC1=Nc2cc(C(=O)NC3CCC(C)CC3)ccc2Sc2ccc(C)cc21 (configuration not stated),active: -81.8%
18,CC1(C(=O)NCc2ccccc2Br)CCN1Cc1csc2ccccc12 (configuration not stated),inactive: -24.7%
19,Cc1ccc(C(=O)N/C(=C\c2ccc(-c3ccccc3[N+](=O)[O-])o2)C(=O)NCCCN(C)C)cc1,inconclusive: -44.9%
20,Cc1cccc(NC(=O)COC(=O)CCCC2=NS(=O)(=O)c3ccccc3N2)c1,active: -104%
21,OCC1CCCC(n2cnc3c(=S)nc[nH]c32)O1 (configuration not stated),inconclusive: -49%
22,O=c1cc(-c2cccc([N+](=O)[O-])c2)[nH][nH]1,inconclusive: -43.4%

row,Compound,"activity change, negative = inhibition"
1,O=S(=O)(c1ccccc1)n1cc(-c2ccccn2)c(N2CCOCC2)n1,inconclusive: -45.9%
2,CCCCSc1nnc(-c2c[nH]c3ccccc23)n1C,inconclusive: -55.5%
3,CCOc1ccc(S(=O)(=O)Nc2cccc(-c3ccc(OCC)nn3)c2)cc1,inconclusive: -40.3%
4,CCN(CC(=O)Nc1c(F)cccc1F)C(=O)CCCc1c[nH]c2ccccc12,inconclusive: -59.5%
5,O=C(c1ccc2c(c1)OCO2)N1CCN(S(=O)(=O)N2CCCCC2)CC1,inconclusive: -51.5%
6,N#CC(C#N)=NNc1ccc([N+](=O)[O-])cc1,active: -90.5%
7,OC[C@@H]1CN(Cc2cccc(C(F)(F)F)c2)C[C@H](n2cnc3c(NCc4ccco4)ncnc32)O1,inconclusive: -46.5%
8,Cc1ccc(N(CC(=O)Nc2ccccc2-c2ccccc2)S(=O)(=O)c2ccccc2)c(C)c1,inconclusive: -58.1%
9,CC(=O)n1cc([C@@H]2C=C(C(=O)Nc3ccccc3)O[C@H](OCCCCO)C2)c2ccccc21,inactive: 65.1%
10,O=c1c2ccccc2on1-c1ccccc1,inactive: -1.99%
11,Cc1ccc2[nH]c(C)c(/C=C/c3cc[n+](C)cc3)c2c1,active: -99.8%
12,CCOc1ccc(OCCC(=O)OCC(=O)NC2CCCC2)cc1,inactive: 0%
13,COc1cccc(NC(=O)CCCCCn2nnc3ccccc3c2=O)c1,inactive: -26.4%
14,ClCCN1CCSCC1,inconclusive: -43.1%
15,COc1ccc(-n2cnc3cc(C(=O)N4CCC5(CC4)OCCO5)ccc32)cc1,inconclusive: -45.9%
16,COc1ccc(C(=O)NC(=S)NNC(=O)[C@H]2C[C@@H]2c2ccccc2)cc1OC,inconclusive: -40.5%
17,COc1ccc(CCC(=O)NCc2ccc3c(c2)OCO3)cc1,inconclusive: -54.9%
18,COc1cc(OC)cc(C(=O)NC(C)c2cnn(-c3ccccc3C)c2C)c1 (configuration not stated),inconclusive: -40.1%
19,O=C(NCC1CCCO1)c1ccccc1OCc1ccc(Cl)cc1 (configuration not stated),inconclusive: -47.5%
20,O=C1c2ccsc2SCCN1Cc1c(Cl)cccc1Cl,inactive: -26.9%
21,CN(CC(=O)NC1CCCCCCC1)S(=O)(=O)c1cccc2cccnc12,active: -62.3%
22,O=C(O)c1cc2nccc(-c3ccco3)n2n1,inactive: -5.17%

row,Compound,"activity change, negative = inhibition"
1,Cc1ccc(NC(=O)CC(=O)c2ccc([N+](=O)[O-])cc2)cc1S(=O)(=O)Nc1cccc(Cl)c1,inconclusive: -51.2%
2,COc1ccc(N2CCN(C(=O)c3ccc(CNS(=O)(=O)c4cccc(OC)c4)cc3)CC2)cc1,inactive: -37.8%
3,CCN(CC)S(=O)(=O)c1ccc(OC(C)C)c(NC(=O)C2=COCCO2)c1,inconclusive: -42%
4,CCC1(C)CC2(CCCN(CCC(=O)c3ccccc3)C2)CCO1 (configuration not stated),inconclusive: -43%
5,O=C(Nc1ccc(OC(F)(F)F)cc1)c1cc(S(=O)(=O)N2CCCCC2)ccc1N1CCOCC1,inconclusive: -57.3%
6,CC1CN(c2nc3c(c(=O)n(Cc4ccc(Cl)cc4)c(=O)n3C)n2C)CC(C)O1 (configuration not stated),inconclusive: -48.2%
7,Cc1ccc(/C=C2\SC(=S)N(CCCC(=O)Nc3ccc(O)cc3)C2=O)cc1,active: -94.8%
8,CN(C)S(=O)(=O)c1cccc(NC(=O)c2ccc(OC(F)(F)F)cc2)c1,active: -94.8%
9,O=C(CCn1c(=O)sc2ccccc21)NCc1cccs1,inconclusive: -46.8%
10,CCOC(=O)N1CCN(C(=O)CN(Cc2ccc(Cl)cc2)S(=O)(=O)c2ccccc2)CC1,inactive: -31.3%
11,O=C(Cc1ccccc1F)Nc1cc(S(=O)(=O)N2CCCC2)ccc1Cl,inconclusive: -48.5%
12,O=C(N/N=C/c1cc(Cl)ccc1O)c1cccnc1,inconclusive: -58.9%
13,COc1ccccc1N1CCN(C(=O)C2CCN(S(=O)(=O)Cc3ccccc3)CC2)CC1,inactive: 7.51%
14,COc1ccccc1Oc1ccc(-c2cnc3ccccc3n2)cc1[N+](=O)[O-],active: -87.5%
15,COc1ccccc1NS(=O)(=O)c1cccc(C(=O)N2CCN(C(=O)c3ccco3)CC2)c1,inconclusive: -40.7%
16,CCOC(=O)C1=C(O)C(=O)N(c2ccccc2)C1c1cccc([N+](=O)[O-])c1 (configuration not stated),inconclusive: -57.6%
17,COc1ccccc1CCc1nnc(CCC(=O)N(C)Cc2ccncc2C)o1,inconclusive: -43.1%
18,O=C(Nc1nnc(S(=O)(=O)N2CCCc3ccccc32)s1)c1ccccc1Cl,inactive: 0.867%
19,O=C(Nc1ccccc1F)Nc1ccc([N+](=O)[O-])cc1Cl,inconclusive: -51.7%
20,CCc1ccc(-c2ccc3nnc(SCC(N)=O)n3n2)cc1,inconclusive: -45.3%
21,O=C(Cc1ncc(C(F)(F)F)cc1Cl)NCc1ccco1,inconclusive: -45.6%
22,CC#CCCc1nc2ccccc2c(=O)n1N,inconclusive: -42.8%

# Exported tab-delimited: part of the list above
row	Compound	activity change, negative = inhibition
19	O=C(NCC1CCCO1)c1ccccc1OCc1ccc(Cl)cc1 (configuration not stated)	inconclusive: -47.5%
20	O=C1c2ccsc2SCCN1Cc1c(Cl)cccc1Cl	inactive: -26.9%
21	CN(CC(=O)NC1CCCCCCC1)S(=O)(=O)c1cccc2cccnc12	active: -62.3%
22	O=C(O)c1cc2nccc(-c3ccco3)n2n1	inactive: -5.17%
1	Cc1ccc(NC(=O)CC(=O)c2ccc([N+](=O)[O-])cc2)cc1S(=O)(=O)Nc1cccc(Cl)c1	inconclusive: -51.2%
2	COc1ccc(N2CCN(C(=O)c3ccc(CNS(=O)(=O)c4cccc(OC)c4)cc3)CC2)cc1	inactive: -37.8%
3	CCN(CC)S(=O)(=O)c1ccc(OC(C)C)c(NC(=O)C2=COCCO2)c1	inconclusive: -42%
4	CCC1(C)CC2(CCCN(CCC(=O)c3ccccc3)C2)CCO1 (configuration not stated)	inconclusive: -43%
5	O=C(Nc1ccc(OC(F)(F)F)cc1)c1cc(S(=O)(=O)N2CCCCC2)ccc1N1CCOCC1	inconclusive: -57.3%
6	CC1CN(c2nc3c(c(=O)n(Cc4ccc(Cl)cc4)c(=O)n3C)n2C)CC(C)O1 (configuration not stated)	inconclusive: -48.2%
7	Cc1ccc(/C=C2\SC(=S)N(CCCC(=O)Nc3ccc(O)cc3)C2=O)cc1	active: -94.8%
8	CN(C)S(=O)(=O)c1cccc(NC(=O)c2ccc(OC(F)(F)F)cc2)c1	active: -94.8%
9	O=C(CCn1c(=O)sc2ccccc21)NCc1cccs1	inconclusive: -46.8%
10	CCOC(=O)N1CCN(C(=O)CN(Cc2ccc(Cl)cc2)S(=O)(=O)c2ccccc2)CC1	inactive: -31.3%
11	O=C(Cc1ccccc1F)Nc1cc(S(=O)(=O)N2CCCC2)ccc1Cl	inconclusive: -48.5%
12	O=C(N/N=C/c1cc(Cl)ccc1O)c1cccnc1	inconclusive: -58.9%
13	COc1ccccc1N1CCN(C(=O)C2CCN(S(=O)(=O)Cc3ccccc3)CC2)CC1	inactive: 7.51%
14	COc1ccccc1Oc1ccc(-c2cnc3ccccc3n2)cc1[N+](=O)[O-]	active: -87.5%
15	COc1ccccc1NS(=O)(=O)c1cccc(C(=O)N2CCN(C(=O)c3ccco3)CC2)c1	inconclusive: -40.7%
16	CCOC(=O)C1=C(O)C(=O)N(c2ccccc2)C1c1cccc([N+](=O)[O-])c1 (configuration not stated)	inconclusive: -57.6%
17	COc1ccccc1CCc1nnc(CCC(=O)N(C)Cc2ccncc2C)o1	inconclusive: -43.1%
18	O=C(Nc1nnc(S(=O)(=O)N2CCCc3ccccc32)s1)c1ccccc1Cl	inactive: 0.867%
19	O=C(Nc1ccccc1F)Nc1ccc([N+](=O)[O-])cc1Cl	inconclusive: -51.7%
20	CCc1ccc(-c2ccc3nnc(SCC(N)=O)n3n2)cc1	inconclusive: -45.3%
21	O=C(Cc1ncc(C(F)(F)F)cc1Cl)NCc1ccco1	inconclusive: -45.6%

# More entries follow:

row,Compound,"activity change, negative = inhibition"
1,COc1ccc(C(=O)COC(=O)C2CC3CCCC(C2)C3=O)cc1Br (configuration not stated),inactive: -12.1%
2,O=C(/C=C/c1cccc(C(F)(F)F)c1)Nc1cccc(C(F)(F)F)c1,active: -99.1%
3,Cn1nnc2cc(C(=O)Nc3ccc(Cl)cc3)ccc21,inactive: -10.2%
4,COc1cccc(CN2CC(C(=O)NCc3cnn(C)c3)CCC2=O)c1 (configuration not stated),inconclusive: -52.2%
5,CCOC(=O)Cn1c(=NC(=O)CN2C(=O)CCC2=O)sc2cc(S(N)(=O)=O)ccc21,inconclusive: -49.8%
6,Cc1csc(NC(=O)C2CCN(S(=O)(=O)c3ccccc3)CC2)n1,inconclusive: -42.6%
7,COc1cc(OC)cc(-c2cc3nc(C)c(CCC(=O)NCc4ccccc4)c(C)n3n2)c1,active: -77.4% and active: -68.6%
8,COc1ccccc1Nc1nc2nonc2nc1N1CCCCC1C (configuration not stated),inconclusive: -44.5%
9,Cc1ccccc1Nc1nn2c(=O)c3ccccc3nc2s1,inactive: 29.2%
10,Cc1sc2nc(CN3CCOCC3)[nH]c(=O)c2c1-c1ccccc1,inactive: -28.4%
11,O=C(NC1CCCCC1NC(=O)c1ccco1)c1ccco1 (configuration not stated),inactive: 8.06%
12,O=C(NC1CCOCC1)C1CCC(=O)N(CCc2ccc(Cl)cc2)C1 (configuration not stated),inconclusive: -57.6%
13,O=C1/C(=C/c2ccncc2)CCc2ccccc21,inconclusive: -58%
14,CCn1c(N)cc(=O)[nH]c1=S,inactive: 4.02%
15,CCc1nc(SCC(=O)NC2CCCC2)c2c(=O)n(C)c(=O)n(C)c2n1,inactive: -18.6%
16,CCOC(=O)N1CCN(C2=C(NS(=O)(=O)c3ccc(NC(C)=O)cc3)C(=O)c3ccccc3C2=O)CC1,inconclusive: -48.4%
17,CC1(C)CC(=O)c2cc(OCC(=O)NCCCN3CCN(c4ccc(F)cc4)CC3)ccc2O1,inconclusive: -53.7%
18,O=C(Cc1cc(=O)[nH][nH]1)N/N=C/c1ccccc1[N+](=O)[O-],inconclusive: -48.6%
19,CCOC(=O)c1c(-c2ccc(C)o2)csc1NC(=O)CSc1nncs1,inconclusive: -46.6%
20,CC(C)c1ccc(OCC(O)CN2CCN(c3ccccc3)CC2)cc1 (configuration not stated),inconclusive: -40%
21,COc1ccc(N(C)S(=O)(=O)c2c(C)noc2C)c(OC)c1,inconclusive: -48.8%
